Literature values in patent publication US20070025997A1, “Use of biomolecular targets in the treatment and visualization of brain tumors” (priority 2002, published 2007).
At least one compound was matched to its structure with a doubt left.

Test system: DDR1
Details: ligand-induced DDR1 shedding; cited from earlier work

In the case of `CNC(=O)[C@H](Cc1ccccc1)NC(=O)[C@H](CC(C)C)[C@H](CSc1cccs1)C(=O)NO` [batimastat], the DDR1 cleavage is listed as “inhibited”.
